In publication PMC5325390 one finds binding data, which are given here for two substances.

By UniProt entry, the sequences of proteins in these tests, tags left out.
UniProt P04198: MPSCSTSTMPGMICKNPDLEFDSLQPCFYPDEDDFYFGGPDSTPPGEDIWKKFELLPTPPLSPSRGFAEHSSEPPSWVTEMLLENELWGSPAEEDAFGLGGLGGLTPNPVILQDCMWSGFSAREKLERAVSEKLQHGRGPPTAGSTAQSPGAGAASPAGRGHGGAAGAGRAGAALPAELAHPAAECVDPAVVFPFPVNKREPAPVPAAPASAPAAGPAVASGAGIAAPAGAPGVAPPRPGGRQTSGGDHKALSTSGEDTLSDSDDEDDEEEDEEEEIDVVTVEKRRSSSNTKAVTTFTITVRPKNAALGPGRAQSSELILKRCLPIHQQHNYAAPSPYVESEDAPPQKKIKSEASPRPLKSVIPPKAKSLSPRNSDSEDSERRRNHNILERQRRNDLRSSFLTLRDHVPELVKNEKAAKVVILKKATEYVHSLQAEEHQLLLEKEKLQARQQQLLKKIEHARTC
UniProt Q99873: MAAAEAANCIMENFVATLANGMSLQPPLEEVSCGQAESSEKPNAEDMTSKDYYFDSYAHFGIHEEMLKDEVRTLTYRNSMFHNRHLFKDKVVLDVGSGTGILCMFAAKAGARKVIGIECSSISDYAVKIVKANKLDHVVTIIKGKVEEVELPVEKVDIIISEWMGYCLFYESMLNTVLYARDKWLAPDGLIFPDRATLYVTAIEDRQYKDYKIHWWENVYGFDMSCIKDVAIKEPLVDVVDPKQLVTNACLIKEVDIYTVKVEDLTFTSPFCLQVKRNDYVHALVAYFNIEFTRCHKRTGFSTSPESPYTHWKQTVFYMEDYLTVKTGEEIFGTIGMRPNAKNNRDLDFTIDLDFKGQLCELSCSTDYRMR

For experiment [1], the target named is GST-MYCN fusion protein (full length) (human) (UniProt P04198). Description: pull-down; GST pull-down: Flag-PRMT1 with GST or GST-MYCN as bait, immunoblotting with anti-Flag antibody; both purified. (In general: Immunoblotting shows a protein as a band on a membrane.)
The target of experiment [2] is endogenous MYCN (human (endogenous in LAN-5)) (UniProt P04198). Description: co-IP; nuclear extracts from LAN-5 cells, immunoprecipitation with anti-MYCN monoclonal antibody, immunoblotting with anti-PRMT1 antibody.

Results are given in words; binding and its absence hold for the method and conditions named. For some assays here: Binding seen in cells or lysates may run through a third protein. Some results given as binding are weak or reduced against the parent protein; the word gives no strength.

Turning to “Flag-tagged recombinant PRMT1 protein (from UniProt Q99873 1-371) (enzyme)”, the binding result in experiment [1] was “binds”. Turning to “endogenous PRMT1 (from UniProt Q99873 1-371) (enzyme)”, in experiment [2], the binding result is “binds”.
